Experimental data as given in PMC5562708.
These are yes or no findings as the source states them, for the method shown. Binding seen in cells or lysates may run through a third protein. Some binding calls cover weakened binding; strength is not graded here. For some assays here: Sequences can lack the tags named with a protein.

Protein sequences, listed by entry. Tags and fused reporters are not part of them. Residues count along the entry.
UniProt Q13873, residues 27-1038: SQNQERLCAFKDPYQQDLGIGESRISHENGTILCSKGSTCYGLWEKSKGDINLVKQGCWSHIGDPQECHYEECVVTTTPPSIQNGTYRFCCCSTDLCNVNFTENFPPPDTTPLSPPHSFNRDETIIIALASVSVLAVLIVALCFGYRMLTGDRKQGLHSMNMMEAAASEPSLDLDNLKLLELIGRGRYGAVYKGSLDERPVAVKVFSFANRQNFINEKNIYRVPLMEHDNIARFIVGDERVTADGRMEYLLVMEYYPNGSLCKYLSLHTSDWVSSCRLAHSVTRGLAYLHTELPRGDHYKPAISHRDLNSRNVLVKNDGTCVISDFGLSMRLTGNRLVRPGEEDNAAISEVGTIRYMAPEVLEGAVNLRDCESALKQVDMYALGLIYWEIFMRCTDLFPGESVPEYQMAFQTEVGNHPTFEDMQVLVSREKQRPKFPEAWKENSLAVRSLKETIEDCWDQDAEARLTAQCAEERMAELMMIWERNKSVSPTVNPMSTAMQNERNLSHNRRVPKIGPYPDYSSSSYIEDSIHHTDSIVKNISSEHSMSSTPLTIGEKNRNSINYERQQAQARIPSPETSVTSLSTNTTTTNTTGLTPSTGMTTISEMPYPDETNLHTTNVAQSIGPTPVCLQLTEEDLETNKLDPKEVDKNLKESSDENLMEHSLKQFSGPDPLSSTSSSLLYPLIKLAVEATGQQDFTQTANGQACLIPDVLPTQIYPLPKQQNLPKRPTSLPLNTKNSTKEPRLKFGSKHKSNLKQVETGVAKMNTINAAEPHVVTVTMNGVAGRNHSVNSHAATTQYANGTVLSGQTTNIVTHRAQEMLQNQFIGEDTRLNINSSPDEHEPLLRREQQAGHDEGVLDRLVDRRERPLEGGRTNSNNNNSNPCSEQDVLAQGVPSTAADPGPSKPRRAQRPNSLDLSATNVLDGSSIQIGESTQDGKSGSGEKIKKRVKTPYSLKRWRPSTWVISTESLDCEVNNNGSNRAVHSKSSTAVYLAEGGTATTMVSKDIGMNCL

Tests used:
[1] = target: T1, IRS4 V906 truncation (myc-tagged) (mouse) (UniProt Q9Z0Y7); assay: co-IP; transfected HEK293T cells, lysed directly or starved 6 h and stimulated with 10 nM BMP2; RIPA or TNE buffer; IP with anti-myc (9E10) or anti-IRS4 antibody overnight, protein A sepharose; Western blot
T1 sequence: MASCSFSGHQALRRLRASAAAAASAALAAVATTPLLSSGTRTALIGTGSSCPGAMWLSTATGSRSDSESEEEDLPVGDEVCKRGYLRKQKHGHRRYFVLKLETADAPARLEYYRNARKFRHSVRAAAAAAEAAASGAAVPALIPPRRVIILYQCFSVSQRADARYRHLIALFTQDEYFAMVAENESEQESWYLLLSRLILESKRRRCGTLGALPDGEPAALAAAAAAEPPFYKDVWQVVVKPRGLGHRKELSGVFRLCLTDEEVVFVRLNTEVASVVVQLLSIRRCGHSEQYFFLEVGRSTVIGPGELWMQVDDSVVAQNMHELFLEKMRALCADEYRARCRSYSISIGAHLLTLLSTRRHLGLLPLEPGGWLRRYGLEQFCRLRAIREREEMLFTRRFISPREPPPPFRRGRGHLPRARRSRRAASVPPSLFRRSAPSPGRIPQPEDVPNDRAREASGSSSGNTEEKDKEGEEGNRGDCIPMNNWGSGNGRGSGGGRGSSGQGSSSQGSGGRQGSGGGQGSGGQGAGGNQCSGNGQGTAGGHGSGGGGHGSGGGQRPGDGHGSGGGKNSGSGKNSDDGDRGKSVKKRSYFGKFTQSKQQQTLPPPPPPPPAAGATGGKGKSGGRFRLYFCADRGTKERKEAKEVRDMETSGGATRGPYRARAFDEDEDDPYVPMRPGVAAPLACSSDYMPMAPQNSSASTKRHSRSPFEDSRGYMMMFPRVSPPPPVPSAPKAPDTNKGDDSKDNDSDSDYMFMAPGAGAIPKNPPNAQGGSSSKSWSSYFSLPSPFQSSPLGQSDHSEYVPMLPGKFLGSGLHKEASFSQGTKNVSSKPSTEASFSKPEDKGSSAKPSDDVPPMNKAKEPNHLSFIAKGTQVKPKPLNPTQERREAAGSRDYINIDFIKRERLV

[2] = target: T2, endogenous IRS4 (HEK293T) (human (endogenous in HEK293T)) (UniProt O14654); assay: as above
T2 sequence: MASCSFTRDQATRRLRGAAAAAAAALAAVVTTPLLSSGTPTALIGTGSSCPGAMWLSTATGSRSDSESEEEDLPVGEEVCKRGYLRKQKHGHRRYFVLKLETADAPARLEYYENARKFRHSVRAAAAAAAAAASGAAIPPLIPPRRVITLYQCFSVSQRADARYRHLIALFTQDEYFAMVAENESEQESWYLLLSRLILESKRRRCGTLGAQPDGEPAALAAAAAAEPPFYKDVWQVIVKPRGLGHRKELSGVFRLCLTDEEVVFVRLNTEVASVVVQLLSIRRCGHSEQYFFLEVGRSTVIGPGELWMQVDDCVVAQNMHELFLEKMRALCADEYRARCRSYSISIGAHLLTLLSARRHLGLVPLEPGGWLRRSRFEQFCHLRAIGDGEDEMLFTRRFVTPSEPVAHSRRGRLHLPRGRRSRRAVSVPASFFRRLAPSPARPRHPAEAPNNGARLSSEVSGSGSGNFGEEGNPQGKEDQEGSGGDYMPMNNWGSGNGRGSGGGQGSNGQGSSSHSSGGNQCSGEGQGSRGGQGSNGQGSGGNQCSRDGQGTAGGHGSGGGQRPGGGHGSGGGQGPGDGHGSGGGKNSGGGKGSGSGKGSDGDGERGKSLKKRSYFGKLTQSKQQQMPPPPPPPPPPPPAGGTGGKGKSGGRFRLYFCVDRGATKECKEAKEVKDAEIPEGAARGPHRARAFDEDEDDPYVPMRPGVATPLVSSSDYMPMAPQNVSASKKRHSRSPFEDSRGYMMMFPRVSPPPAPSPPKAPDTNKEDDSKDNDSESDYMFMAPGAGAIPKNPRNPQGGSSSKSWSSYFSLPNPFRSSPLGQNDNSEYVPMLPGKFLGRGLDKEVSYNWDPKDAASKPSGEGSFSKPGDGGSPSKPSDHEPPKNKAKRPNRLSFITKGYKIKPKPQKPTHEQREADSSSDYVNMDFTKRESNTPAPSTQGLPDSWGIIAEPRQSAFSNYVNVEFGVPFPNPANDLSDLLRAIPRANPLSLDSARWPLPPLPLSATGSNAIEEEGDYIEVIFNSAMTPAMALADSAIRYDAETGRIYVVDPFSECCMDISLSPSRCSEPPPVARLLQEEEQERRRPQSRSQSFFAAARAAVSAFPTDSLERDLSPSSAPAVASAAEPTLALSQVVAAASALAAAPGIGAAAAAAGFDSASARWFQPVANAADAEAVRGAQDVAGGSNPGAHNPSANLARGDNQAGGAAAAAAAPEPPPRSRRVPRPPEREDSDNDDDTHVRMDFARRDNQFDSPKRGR

binding [1]: binds
binding [2]: binds
Substance: HA-tagged BMPRII long form (HA-BMPRII-LF) (from UniProt Q13873 27-1038) (receptor)
